In all, about 33,000 sequences were measured (“E-score (-0.5 to 0.5)”: median about -0.0034, highest 2% from about 0.25 on). Some of the results follow.
Each sequence was assayed against T1, Yap3 (UniProt P38749) (assay: PBM E-score (8-mer binding enrichment) (E-score (-0.5 to 0.5)); higher = stronger / more preferred TF binding). Conditions: protein concentration: 100 nM; construct: GST-full length.
T1 sequence: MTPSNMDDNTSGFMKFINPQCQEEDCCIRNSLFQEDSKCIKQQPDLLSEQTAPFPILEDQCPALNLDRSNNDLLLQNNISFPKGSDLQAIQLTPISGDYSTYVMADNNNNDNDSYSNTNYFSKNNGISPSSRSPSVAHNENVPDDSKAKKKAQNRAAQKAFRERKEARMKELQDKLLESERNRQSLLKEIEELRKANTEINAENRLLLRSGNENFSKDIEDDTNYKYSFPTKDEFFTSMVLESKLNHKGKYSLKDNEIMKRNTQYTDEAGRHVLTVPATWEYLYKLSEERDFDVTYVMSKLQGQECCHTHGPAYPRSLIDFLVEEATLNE
Summary of the method: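 Universal all-10-mer Agilent arrays, double-stranded by primer extension on fresh or once-stripped slides, were probed with about 100-200 nM GST-tagged yeast transcription factors made by PURExpress. Fluorescent anti-GST detected bound protein, and masliner normalised the scans. E-scores from the Universal PBM Analysis Suite were given to each ungapped eight-base word pooled with its reverse complement.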

| Sequence | PBM E-score |
| --- | --- |
| AGTGTTTA | 0.169 |
| CAGCTGCC | -0.0739 |
| ACATATAT | 0.123 |
| ACGACGGC | -0.0705 |
| CACTACGG | 0.0333 |
| GTCAGTGA | -0.0524 |
| TCCGATCA | 0.108 |
| AGAGAAAA | 0.0508 |
| GTATATAA | 0.217 |
| ATTGGACG | 0.109 |
| AGTGACGG | 0.0964 |
| ACTTTGCC | -0.0297 |
| CAATTCAA | 0.072 |
| ACCTTAAT | 0.104 |
| AATCGGGC | 0.0438 |
| CAAGCATG | -0.058 |
| CATTCGCG | 0.038 |
| CGACGGGC | -0.0448 |
| CTAACGGC | 0.00219 |
| AGATAAAG | 0.174 |
| AACTTAGC | -0.0179 |
| ACAATCCA | 0.287 |

| Sequence | PBM E-score |
| --- | --- |
| ATTTAAAT | 0.212 |
| GGATTGCC | -0.116 |
| ACACGAGC | -0.105 |
| ATGACTCG | -0.0589 |
| CCGCGATC | -0.0303 |
| CTGGGACC | -0.279 |
| GGCTTAGA | -0.192 |
| AACTCCAG | -0.134 |
| CATTCCAC | 0.0665 |
| AACCATAG | -0.0373 |
| ACTGTGAC | 0.215 |
| GGCAAGCA | -0.186 |
| CTGCTCAA | 0.061 |
| GCAATGAA | 0.139 |
| GTGATAGA | 0.0565 |
| ATTTAAAG | 0.1 |
| AATAAGGA | 0.0471 |
| AGTTGGCA | -0.0258 |
| ACTTCACT | 0.156 |
| GCGGAAGC | -0.179 |
| TCACGGCA | 0.0474 |
| CCGAGGCG | -0.0459 |

| Sequence | PBM E-score |
| --- | --- |
| CAATGTCA | 0.119 |
| ACTATCGG | 0.025 |
| CTTCCGTA | 0.176 |
| AAGGTCAT | -0.047 |
| CTGTAACA | -0.0647 |
| AAAAAAGT | 0.174 |
| CGGTGCCC | -0.264 |
| AATTGAGT | 0.0864 |
| AACCCCGG | -0.158 |
| ATGGATTC | -0.0182 |
| ACCCCTGA | -0.0867 |
| ACTCTGTG | -0.123 |
| CCACATCA | 0.00532 |
| TAACACGA | 0.231 |
| AGTCCTAA | -0.0258 |
| ATCCAAGG | -0.0203 |
| GGATGACA | 0.207 |
| CTTAGTTA | 0.179 |
| ACAGTCGG | -0.0319 |
| AGCAAAAA | 0.122 |
| ACACACGT | 0.0617 |
| TGGACTAA | -0.00372 |

| Sequence | PBM E-score |
| --- | --- |
| CAAGAGAA | 0.0376 |
| ACGACGTC | 0.037 |
| CGTACTGA | 0.0487 |
| GTAACACA | 0.198 |
| CGGACTGA | -0.0704 |
| AACAGTAG | 0.0583 |
| CGCCCCTA | 0.0165 |
| AATCAGAG | 0.0956 |
| AAAGTCGC | 0.085 |
| GGACTAAA | -0.121 |
| CGATCGGC | 0.00629 |
| ATCTATCG | -0.0358 |
| ATAACTGC | -0.074 |
| AGCAAGTC | -0.11 |
| ACGGAGCT | -0.249 |
| AAGCCCCA | -0.311 |
| ATTTTCTG | 0.0697 |
| ATCTGTAA | -0.0303 |
| ACTTAGCT | -0.0578 |
| ACCTGTCT | -0.111 |

Looked up one by one from the list above (5):

| Sequence | PBM E-score |
| --- | --- |
| ACTTAGCT | -0.0578 |
| ACCTGTCT | -0.111 |
| AATCAGAG | 0.0956 |
| CGTACTGA | 0.0487 |
| ACGACGTC | 0.037 |
